Like-named read-outs stand apart in the source and are kept apart here. Some results were stated once for a whole list of compounds, not compound by compound. For at least one compound, name, drawing or mass did not settle the structure.
Tested on: actively growing E. coli
Conditions: for triphosphate remaining in media, % of initial 0.25 mM concentration: 50 mM KPi

COc1cc2ccccc2cc1[C@H]1C[C@H](O)[C@@H](COP(=O)(O)OP(=O)(O)OP(=O)(O)O)O1 [dNaMTP]
triphosphate remaining in media, % of initial 0.25 mM concentration (15 h of growth): 17-20% | triphosphate remaining in media, % of initial 0.25 mM concentration (19 h of growth): 10-16% | increase of extracellular stability by addition of potassium phosphate (KPi in growth medium): more than 2 fold
